# Publication PMC8262886, “The Breadth and Molecular Basis of Hcp-Driven Type VI Secretion System Effector Delivery” (mBio, 2021)
# B1: PA2066-HA (protein, UniProt Q9I249 1-212)
# chain: MSPTLQDARLLWDFLGQGRCHVPCELLVVCGSYDLRVCDHACELLERGLAERLLFTGNTGHWTRHLWVEPEAELFARHARARGVSDSLIVIEPRATNFAENIAFARELFPDLRRATFVTKPNSIRRVALTLPVRWPGLEGHVDAPDYAFPDGISNLVGVLGVIDEMVGDLDRIMRYPALGFQVACPIPAQVMDAWERLVARGFDRHLVNPPR
# Key:
# [1] = molecular target: Hcp2-His (P. aeruginosa); test: pull-down; Hcp-His (bait, pACYCDuet-1) and HA-tagged effector (pET22b) coexpressed in E. coli BL21; soluble lysate on Ni-NTA resin (HisTrap Fast Flow) in 50 mM Tris, 500 mM NaCl, 20 mM imidazole, pH 8; eluted with 400 mM imidazole; Western blot anti-HA and anti-His or anti-Hcp2
# [2] = molecular target: Hcp2-His (P. aeruginosa); test: condition: only after size exclusion chromatography of the Ni-NTA eluate; SEC; Ni-NTA elution peak of the coexpressed pair run on Superdex 200 10/300 in 50 mM Tris, pH 8, 150 mM NaCl (250 mM NaCl for Hcp1-His with HA-Tse2); peak fractions by Western blot or Coomassie stain
binder,measurement,setting,value
B1,binding,[1],binds weakly
same,binding,[2],no binding

# These are yes or no findings as the source states them, for the method shown. For some assays here: Binding seen in cells or lysates may run through a third protein. For some assays here: A result given as binding can be weak or reduced; the word gives no strength. Where a sequence is shown, tags or fusion partners need not be part of it.
